Results on 107 sequences are retold here after PubChem BioAssay AID1508600 (Functional Genomics Laboratory (NCATS/FGL), 2020).

The campaign covered roughly 53,000 sequences. About 3,700 (7%) were called active.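 The calls were made as follows: active = gene knockdowns whose robust z-score for IL-1 alpha signal is at least 2 or at most -2, so actives lie on both sides; inactive = the rest.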 This is one part of the list.

The nature of this assay: Components of the Cytosolic LPS Sensing Pathway: Gene Identification via Genome-wide siRNA Screen.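 Also: robust z of the log signal after scaling to non-targeting control siRNA wells of the plate.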 As to conditions: RAW264.7 macrophages, IL-1a HTRF, actives lie on both sides, screened at 100 nM (by protocol), cells primed 5 h with Pam3CSK4 first. The essentials:
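Cells (RAW264.7, 1×10^4 per well) were transfected with siRNA at 100 nM and cultured 48h at 37 degrees C. Pam3CSK4 was added for 5 hours; LipidA transfection followed for 24 hour. IL-1a was then measured by HTRF.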
In the case of GGACGGUAGCCAUAUUAAUTT against Spink2, the z-score was inactive: -0.385.
Next, GCCGAUUUGCUAUCUCAUATT against Tnf: inactive: -1.12; CUAAUGUCUGUGGUCAAAUTT against Trim6: inactive: -0.0124.
For GCAACCUGCUAUUGGCACUTT against Tm6sf2, the z-score is inactive: 0.803.
Turning to GGAUGAGGCACAGUUGUGUTT against Trim10, the z-score is inactive: 0.131.
“GGUUAAGUUACUAACCCAGTT against 4931406C07Rik”: the z-score was inactive: 1.01.
With GGAUAAACAUCAUCUAUGGTT against Olfr603, the z-score was inactive: -1.7.
Regarding GGAAUAUGAGAAAAUGAGCTT against Ctsc, the z-score is inactive: 0.239.
For GCAACAGAAGAUAACUCAATT against Dnajc28, the z-score is inactive: 1.07.
For the sequence CGAACAGAGUCUAAUCUCATT against Ptpn1, the z-score is inactive: 1.69.
Next, GGCUUUGAAAGUUACUACUTT against Zfp609: inactive: 1.22; CGAGUGCAUGAAAUCUUCATT against Polr2a: inactive: -1.82.
As for GCUCUAGAAGCGUACAGGCTT against Pole3, the z-score was inactive: -0.492.
Take GGGCAAACAACAUCGAUGGTT against Wdsub1: the z-score was inactive: -1.76.
On to GGCUCCAUCGAAAGGUAAATT against Lyar, for which the z-score is inactive: -0.803.
Next, GGACCAAGACCGAUGUGUATT against Ackr4: inactive: 0.398; GGUGUCUUAAAGCUGAAAUTT against E2f5: inactive: -0.111.
As to CCUCAGCUAAUGAAACUUCTT against Utp14b, the z-score was inactive: -0.902.
With GGAAAGUGAUGUCACAAAATT against G3bp1, the z-score is inactive: 1.31.
On to GGAAAGAUGUGGAAGUAAATT against Erc1, for which the z-score is inactive: -0.977.
For GCAUUCAAGCAACCACGAATT against Ptdss1, the z-score is inactive: -0.926.
Next, GGAAACCCAGAGCAGCAGATT against Tdg: inactive: -1.01; CCUCAUCCUUAGUUGUUUUTT against Ift88: inactive: -0.15; CCCGAAGCCUUAGAUAUAATT against Tns4: inactive: -0.15.
On to GGAUAUCACUGAAGAGAGCTT against Ndufaf3, for which the z-score was inactive: -0.127.
In the case of GGCGGUGGAGGUGAUAUAUTT against Dennd6a, the z-score was active: -2.01.
Take GGAAAAAGAAAAACCAGCATT against Sytl4: the z-score is inactive: -0.959.
For the sequence CUACAGUCGCAUCAACUAUTT against Tepp, the z-score was inactive: 1.34.
Take GGGAUGAACUCAACUGGAATT against Lrpap1: the z-score is inactive: -0.332.
For GGACCAACUACACACUACGTT against Grik5, the z-score is inactive: 0.334.
In the case of GGGAUUCUACUGUGUGUGATT against Gpr82, the z-score was inactive: -0.532.
Take CGAUUUCCCAAGUUAUUACTT against Nxf1: the z-score was active: -2.26.
Consider GGUAGCUUACAAACCAUCATT against Tab1, for which the z-score was inactive: -1.6.
Next, GAGCAAGAUCCAGCCCUAUTT against Usp17lc: inactive: 1.43.
Next, GGUAUUGGGCCAUUGGUUGTT against Mapkapk3: inactive: 0.705; GGAACAAAUGCCACUAACCTT against Pde5a: inactive: -0.566.
As to GGAUGUGCUCGGUUGGAAGTT against Mtag2, the z-score was inactive: -1.11.
As to GGAUAAGAGUGAUGAAGCCTT against Dgcr2, the z-score is inactive: 0.504.
As to GGCAAGGCUAACUGACCUGTT against Cxcl2, the z-score was inactive: 0.37.
Consider GGUUUUACUGUAGACCUUUTT against Hnrnpa1, for which the z-score was inactive: 0.542.
Next, GAUUUUCUGUGUCCAUCAATT against Olfr726: inactive: -0.548.
For GGACACAGAUUUCACUAUATT against Arfrp1, the z-score was inactive: 0.67.
As to GCAACAAAUGGACUUUCCATT against Stard13, the z-score was inactive: 0.19.
Consider “GGGAGAUGAUAAUUAAGUUTT against Aadacl2fm1”, for which the z-score was inactive: 0.58.
GGAAGUUUCAGUCAAGAAGTT against Rrp1b: the z-score is inactive: 0.759.
As for GGAUGCAGAUGUACAACUCTT against Slc25a28, the z-score is active: 2.17.
With GCCGUGUUUACAGAAUGUUTT against Nkx2-2, the z-score is inactive: -0.0892.
Turning to CCCAAUUUUUAGUUGCUAATT against Rab2b, the z-score is inactive: 0.0495.
Next, “CGAACUUUGUCAUGUCCAUTT against 9930111J21Rik2”: inactive: 0.162; GGAUUUCAAAACCGACUUGTT against H3f3b: inactive: 0.0842.
With CCCUCUCCUCAGAUAUACUTT against Grasp, the z-score is inactive: -1.35.
As for GCAGAUCACCUUUUGUUUATT against Gdap2, the z-score was inactive: 0.767.
In the case of CCUCGUAAGACUGUAAAAGTT against Neurog2, the z-score was inactive: -0.0769.
Next, GGUGAAGUAUGGCAACAUGTT against Unc93b1: inactive: 1.33.
On to GCCUCUAUGUUACCACCUCTT against Fam110c, for which the z-score is inactive: -1.61.
Consider CCAUAAAGAACAUCACUAATT against Igf2bp2, for which the z-score was inactive: 0.34.
As to GGGUUAGGUUGGGAUGGAUTT against Ccnd3, the z-score was inactive: -0.466.
Next, GGGAUCUAAGGAACAGAGATT against Fgf8: inactive: 1.1.
With GGGAUCAAAGGAAAUUACATT against Vnn1, the z-score is inactive: -1.52.
With GGAAUGAGAAGAGAGGAUCTT against Rpp25, the z-score is inactive: -0.239.
For the sequence GGACAGCACUAACACAUCCTT against Slamf9, the z-score was inactive: -0.413.
Next, GGUCUCCACCUCCAUAUCCTT against Slc15a3: inactive: -1.74.
For CCGAGGAGAACACUUGUAGTT against Opn4, the z-score is active: -2.54.
As for GCAAUCCAGAGGUACGCUATT against Hgf, the z-score is inactive: 0.031.
Next, GCUCUUCUCAAGUAUGACGTT against Chrna6: inactive: 0.717; GAGAAGAAGACAAAGAUCCTT against Defb7: inactive: -0.12; CCAAGCUAGAUAAAGAAAGTT against Yap1: inactive: -1.68.
With CCUCUACUCCUUAUUGUCUTT against Ctf2, the z-score is inactive: -0.753.
Next, GGACAGGAGUUUAAAAUUATT against Apip: inactive: 0.679; CCUCAAAGGCCCUACCAAUTT against Tle6: inactive: -1.66.
Next, CCAAAGUCAUAAUUCCAACTT against Timm23: inactive: 0.202.
On to GGCUGCUUUAAAGAGAUUCTT against Olfr1045, for which the z-score is inactive: 0.528.
For the sequence GCACAACAUACCCUGUGGUTT against Syn1, the z-score is active: -2.72.
Next, GGAAAUGCUCCUCUAGGAUTT against Ppcs: inactive: 0.039; GGCAAAGCAGGGAUCUAGATT against Noxo1: inactive: -0.431; GAAAAAUGUGGAAGAGAUUTT against Olfr1219: inactive: -0.909.
Next, GGACAAGGAUAGUAGUAAGTT against Parp1: inactive: -0.122; GGAGAUUUGGAAAAGGCAATT against Clec4f: inactive: 0.179; GGCCAUUUGGAAACUAUUATT against Anapc11: inactive: -0.109.
As for CCUUGUAUAUGAGCGAAAATT against Cd177, the z-score was inactive: -0.215.
On to CCAAUAGUGCUGAUAAUGUTT against Wrap53, for which the z-score is inactive: 0.337.
GGAAACAUCCACAAAGAGUTT against Kri1: the z-score is inactive: 0.532.
On to GGGACAAAGAAAAUCUACUTT against Ehf, for which the z-score was inactive: 0.637.
Next, CCUACGUGUUUAAGAUGAATT against Alk: inactive: 0.499.
On to GGUUCCGUUUAAUGAAGUGTT against Fxr1, for which the z-score was inactive: -0.542.
Regarding GGGAAUAUGUCUUGUGAUATT against Ddo, the z-score was inactive: 0.141.
For GACCUUCCUGUCUUCCCUCTT against Cmtm5, the z-score is inactive: 1.68.
On to GCCUGUGGAGCCAAUCUACTT against Ephx2, for which the z-score is inactive: -0.211.
Regarding CCUAUUAAAUCUCUGUAAGTT against Cep164, the z-score was inactive: -0.162.
For GGAGAGAUGAGAUUUUUCATT against Rad54b, the z-score was inactive: 1.07.
Take GGAUUCACCUGUUAUCUUUTT against Tapbpl: the z-score is inactive: 0.303.
Next, CCACUCAGGAAAUGUUAAGTT against Mrpl53: inactive: 0.645; GGAAAUGUUGCAUUUUUGATT against Ltf: inactive: 0.312.
Next, CCUUUCAGGCCAAUUGGCATT against Ube2l6: inactive: 0.0844; GGGAGAACGGGUUCUCUUUTT against Sox12: inactive: 1.36; CGGGUUUGUAAUAUUGUAUTT against Mblac2: inactive: -0.365.
CCUAUGAAGGACACAGACUTT against Trim9: the z-score was inactive: 1.09.
Next, CCACAAAUAUAUGGGUUACTT against Tbc1d5: inactive: 1.21; GGUACCAUCACGUUGUGUATT against M6pr: inactive: -0.76; GCGUGCAACAUGUUCUGUATT against Wfdc13: inactive: 0.0377.
Next, CCCGGUCAUAUAUGCCAUCTT against Gpr135: inactive: -0.416.
Regarding GGACAAGAUGAUCUGCCUATT against Lrrc8a, the z-score is inactive: 0.722.
Next, GGAUGGAUCAAUUCAACCATT against Tmem50a: inactive: -1.73.
Next, GGGUUUGGGAACAUCGAUGTT against Angptl2: inactive: 0.66.
Regarding GGUAUAAAGCCUCAGUUUUTT against Gatad1, the z-score was inactive: 0.137.
For the sequence CCAUUGUACAGAAAAACACTT against Abhd18, the z-score was inactive: 0.41.
Take GCGUGGAUCAACUCAUGGATT against Naxe: the z-score was inactive: -0.718.
